Assay results reported in ChEMBL document CHEMBL1157379, “Transcriptional response of Candida parapsilosis following exposure to farnesol” (2007).
Further values from the same series stand in other lists.

What was measured:
Assay type in all cases: functional
Candida parapsilosis [1] = experiment: Decrease in POL30 gene expression in Candida parapsilosis CLIB214 at 50 uM after 2 hrs by microarray based transcriptional profiling relative to control
Candida parapsilosis [2] = experiment: Decrease in CGD gene ortholog accession number orf19.6805 expression in Candida parapsilosis CLIB214 at 50 uM after 2 hrs by microarray based transcriptional profiling relative to control
Candida parapsilosis [3] = experiment: Decrease in HOF1 gene expression in Candida parapsilosis CLIB214 at 50 uM after 2 hrs by microarray based transcriptional profiling relative to control
Candida parapsilosis [4] = experiment: Increase in LAG41 gene expression in Candida parapsilosis CLIB214 at 50 uM after 2 hrs by microarray based transcriptional profiling relative to control
Candida parapsilosis [5] = experiment: Decrease in MSH6 gene expression in Candida parapsilosis CLIB214 at 50 uM after 2 hrs by microarray based transcriptional profiling relative to control
Candida parapsilosis [6] = experiment: Increase in WRS1 gene expression in Candida parapsilosis CLIB214 at 50 uM after 2 hrs by microarray based transcriptional profiling relative to control
Candida parapsilosis [7] = experiment: Increase in ERG6 gene expression in Candida parapsilosis CLIB214 at 50 uM after 2 hrs by microarray based transcriptional profiling relative to control
Candida parapsilosis [8] = experiment: Decrease in CGD gene ortholog accession number orf19.433 expression in Candida parapsilosis CLIB214 at 50 uM after 2 hrs by microarray based transcriptional profiling relative to control
Candida parapsilosis [9] = experiment: Decrease in CGD gene ortholog accession number orf19.5253 expression in Candida parapsilosis CLIB214 at 50 uM after 2 hrs by microarray based transcriptional profiling relative to control
Candida parapsilosis [10] = experiment: Decrease in RIM21 gene expression in Candida parapsilosis CLIB214 at 50 uM after 2 hrs by microarray based transcriptional profiling relative to control
Candida parapsilosis [11] = experiment: Increase in CGD gene ortholog accession number orf19.1392 expression in Candida parapsilosis CLIB214 at 50 uM after 2 hrs by microarray based transcriptional profiling relative to control
Candida parapsilosis [12] = experiment: Decrease in GenBank accession number XP_457517.1 expression in Candida parapsilosis CLIB214 at 50 uM after 2 hrs by microarray based transcriptional profiling relative to control
Candida parapsilosis [13] = experiment: Decrease in CAT8 gene expression in Candida parapsilosis CLIB214 at 50 uM after 2 hrs by microarray based transcriptional profiling relative to control
Candida parapsilosis [14] = experiment: Decrease in MES1 gene expression in Candida parapsilosis CLIB214 at 50 uM after 2 hrs by microarray based transcriptional profiling relative to control
Candida parapsilosis [15] = experiment: Increase in NAD3 gene expression in Candida parapsilosis CLIB214 at 50 uM after 2 hrs by microarray based transcriptional profiling relative to control
Candida parapsilosis [16] = experiment: Increase in CGD gene ortholog accession number orf19.1335 expression in Candida parapsilosis CLIB214 at 50 uM after 2 hrs by microarray based transcriptional profiling relative to control
Candida parapsilosis [17] = experiment: Increase in CGD gene ortholog accession number orf19.822 expression in Candida parapsilosis CLIB214 at 50 uM after 2 hrs by microarray based transcriptional profiling relative to control
Candida parapsilosis [18] = experiment: Increase in CGD gene ortholog accession number orf19.37 expression in Candida parapsilosis CLIB214 at 50 uM after 2 hrs by microarray based transcriptional profiling relative to control
Candida parapsilosis [19] = experiment: Decrease in CGD gene ortholog accession number orf19.2194 expression in Candida parapsilosis CLIB214 at 50 uM after 2 hrs by microarray based transcriptional profiling relative to control
Candida parapsilosis [20] = experiment: Increase in CGD gene ortholog accession number orf19.5333 expression in Candida parapsilosis CLIB214 at 50 uM after 2 hrs by microarray based transcriptional profiling relative to control
Candida parapsilosis [21] = experiment: Increase in CGD gene ortholog accession number orf19.5710 expression in Candida parapsilosis CLIB214 at 50 uM after 2 hrs by microarray based transcriptional profiling relative to control
Candida parapsilosis [22] = experiment: Decrease in CGD gene ortholog accession number orf19.2149 expression in Candida parapsilosis CLIB214 at 50 uM after 2 hrs by microarray based transcriptional profiling relative to control
Candida parapsilosis [23] = experiment: Decrease in CGD gene ortholog accession number orf19.5920 expression in Candida parapsilosis CLIB214 at 50 uM after 2 hrs by microarray based transcriptional profiling relative to control
Candida parapsilosis [24] = experiment: Decrease in CGD gene ortholog accession number orf19.7010 expression in Candida parapsilosis CLIB214 at 50 uM after 2 hrs by microarray based transcriptional profiling relative to control
Candida parapsilosis [25] = experiment: Decrease in CGD gene ortholog accession number orf19.3063 expression in Candida parapsilosis CLIB214 at 50 uM after 2 hrs by microarray based transcriptional profiling relative to control
Candida parapsilosis [26] = experiment: Increase in CGD gene ortholog accession number orf19.6393 expression in Candida parapsilosis CLIB214 at 50 uM after 2 hrs by microarray based transcriptional profiling relative to control
Candida parapsilosis [27] = experiment: Decrease in DAG7 gene expression in Candida parapsilosis CLIB214 at 50 uM after 2 hrs by microarray based transcriptional profiling relative to control
Candida parapsilosis [28] = experiment: Decrease in CGD gene ortholog accession number orf19.2666 expression in Candida parapsilosis CLIB214 at 50 uM after 2 hrs by microarray based transcriptional profiling relative to control
Candida parapsilosis [29] = experiment: Increase in CGD gene ortholog accession number orf19.7243 expression in Candida parapsilosis CLIB214 at 50 uM after 2 hrs by microarray based transcriptional profiling relative to control
Candida parapsilosis [30] = experiment: Increase in CGD gene ortholog accession number orf19.2917 expression in Candida parapsilosis CLIB214 at 50 uM after 2 hrs by microarray based transcriptional profiling relative to control
Candida parapsilosis [31] = experiment: Decrease in CGD gene ortholog accession number orf19.1028 expression in Candida parapsilosis CLIB214 at 50 uM after 2 hrs by microarray based transcriptional profiling relative to control
Candida parapsilosis [32] = experiment: Decrease in GAL10 gene expression in Candida parapsilosis CLIB214 at 50 uM after 2 hrs by microarray based transcriptional profiling relative to control
Candida parapsilosis [33] = experiment: Decrease in CBF1 gene expression in Candida parapsilosis CLIB214 at 50 uM after 2 hrs by microarray based transcriptional profiling relative to control
Candida parapsilosis [34] = experiment: Increase in CGD gene ortholog accession number orf19.5399 expression in Candida parapsilosis CLIB214 at 50 uM after 2 hrs by microarray based transcriptional profiling relative to control
Candida parapsilosis [35] = experiment: Increase in GCD1 gene expression in Candida parapsilosis CLIB214 at 50 uM after 2 hrs by microarray based transcriptional profiling relative to control
Candida parapsilosis [36] = experiment: Decrease in ERG251 gene expression in Candida parapsilosis CLIB214 at 50 uM after 2 hrs by microarray based transcriptional profiling relative to control
Candida parapsilosis [37] = experiment: Decrease in TRL1 gene expression in Candida parapsilosis CLIB214 at 50 uM after 2 hrs by microarray based transcriptional profiling relative to control

CC(C)=CCC/C(C)=C/CC/C(C)=C/CO [FARNESOL]
fold change (FC) (Candida parapsilosis [1]): 1.69 | fold change (FC) (Candida parapsilosis [2]): 1.95 | fold change (FC) (Candida parapsilosis [3]): 2.93 | fold change (FC) (Candida parapsilosis [4]): 1.89 | fold change (FC) (Candida parapsilosis [5]): 2.01 | fold change (FC) (Candida parapsilosis [6]): 1.51 | fold change (FC) (Candida parapsilosis [7]): 1.93 | fold change (FC) (Candida parapsilosis [8]): 2.11 | fold change (FC) (Candida parapsilosis [9]): 1.59 | fold change (FC) (Candida parapsilosis [10]): 1.67 | fold change (FC) (Candida parapsilosis [11]): 1.5 | fold change (FC) (Candida parapsilosis [12]): 1.86 | fold change (FC) (Candida parapsilosis [13]): 2.09 | fold change (FC) (Candida parapsilosis [14]): 1.53 | fold change (FC) (Candida parapsilosis [15]): 2.76 | fold change (FC) (Candida parapsilosis [16]): 1.75 | fold change (FC) (Candida parapsilosis [17]): 2.15 | fold change (FC) (Candida parapsilosis [18]): 1.74 | fold change (FC) (Candida parapsilosis [19]): 1.96 | fold change (FC) (Candida parapsilosis [20]): 1.57 | fold change (FC) (Candida parapsilosis [21]): 1.74 | fold change (FC) (Candida parapsilosis [22]): 2.06 | fold change (FC) (Candida parapsilosis [23]): 1.51 | fold change (FC) (Candida parapsilosis [24]): 2 | fold change (FC) (Candida parapsilosis [25]): 1.66 | fold change (FC) (Candida parapsilosis [26]): 1.6 | fold change (FC) (Candida parapsilosis [27]): 1.67 | fold change (FC) (Candida parapsilosis [28]): 1.78 | fold change (FC) (Candida parapsilosis [29]): 1.87 | fold change (FC) (Candida parapsilosis [30]): 2.52 | fold change (FC) (Candida parapsilosis [31]): 1.6 | fold change (FC) (Candida parapsilosis [32]): 1.78 | fold change (FC) (Candida parapsilosis [33]): 1.5 | fold change (FC) (Candida parapsilosis [34]): 1.55 | fold change (FC) (Candida parapsilosis [35]): 1.73 | fold change (FC) (Candida parapsilosis [36]): 2.24 | fold change (FC) (Candida parapsilosis [37]): 1.66
